# Measurements as given in the supplement of paper PMC10338343.
# ± gives the standard deviation. This is a selection; strong and weak results do not stand in their true shares. Many entries were measured with a wide error.
# Tested on: MIWI (PIWIL1) piRISC loaded with Kctd7 piRNA (30 nt)
# Test: pre-steady-state target cleavage rate (min^-1); MIWI and MILI are mouse PIWI proteins and EfPiwi is from a freshwater sponge; tags in brackets are library labels; higher = faster piRNA-guided slicing of the target
# Details: guide: Kctd7 piRNA 5'p-UGUUAAUCUCUCAGAGAAGGUGACAGUGAU; auxiliary factor: 500 nM mouse GTSF1
# Method in brief: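 A transcribed, DNA-blocked target RNA library […] was incubated at 33 °C for 0–8 or 0–960 min with 1 nM active affinity-purified piRISC carrying one synthetic guide, in HEPES–potassium acetate buffer with or without 500 nM GTSF1 partner protein. Uncleaved targets were then sequenced and normalised to depth and to weakly complementary targets. Data from three trials were pooled, with k3 capped at 0.0001 min^-1, and a burst-and-steady-state fit yielded the pre-steady-state cleavage rate.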
# 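Also: 1 nM active piRISC with 0.1 nM target library at 33 °C single turnover.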
row,Sequence,pre-steady-state target cleavage rate
1,UAGACUGUCACCUGUCUCUGAGAGAUUAACA,0.561 ± 0.036
2,UAGUCUGUCACCUUGUCUGAGAGAUUUUGA,0.197 ± 0.06
3,UUCACUGUCACGAACUCUGAGAGAUUAAGA,0.00121 ± 0.0061
4,UAGUGAGUCACGAUCUCUGAGAGAUUUUGA,0.00157 ± 0.0053
5,UAGACUGUCACCUUCUCUGACUGAUUUUGA,0.00014 ± 0.031
6,UUCACAGUCACCUUCUCUGAGAGAUUAAGA,0.137 ± 0.027
7,UAGACACUCACCUUCUCUGAGAGAUUAUGA,0.141 ± 0.031
8,AUCACUGUCACGAACUCUGAGAGAUUAAGA,0.000786 ± 0.0096
9,UAGUGACAGUCCUUCUCUGAGACGAUUAACA,0.000136 ± 0.028
10,UAGUGACAGUCCUUCUCAGAGAGAUUAAGA,0.00158 ± 0.0048
11,UAGUCUGUCACCUUCUCUGAGACUUUUUGA,0.00218 ± 0.0046
12,UACACUGUCAGCUUCUCUGAGAGAUAUUGA,0.00175 ± 0.0056
13,UACACGGUCACCUUCUCUGAGAGAUUAACA,0.593 ± 0.027
14,UAGUGACAGUGCUUCUCUGAGAGGUUAACA,0.00223 ± 0.0033
15,UAGUCUGUCAGCUUCUCUGACAGAUUAACA,0.00184 ± 0.0062
16,UAGUGACAGUGGAACUCUGAGAGUAUUAACA,0.000119 ± 0.039
17,UAGUGAGUCUGCUUCUCUGAGAGAUUUUGA,0.000535 ± 0.0085
18,UAGUGACAGUGCUUCUCAGAGUGAUUAACA,0.00112 ± 0.0058
19,UAGUGACUCACCUUCUCUGAGAAUUAACA,0.000859 ± 0.0097
20,UAGUGACACACCUUCUCAGUGAGAUUAACA,0.00441 ± 0.0046
21,UAGUGACAGUCCUUACUCUGAGAGAUUAACA,0.0326 ± 0.0043
22,UUGACUGUCACCUACUCUGAGAGAUUAACA,0.689 ± 0.041
23,UACACUGUCACCUUCAGUGAGAGAUAUUGA,0.00148 ± 0.012

row,Sequence,pre-steady-state target cleavage rate
1,UUCACUGUCACCUUUUCUGAGAGAUUAACA,0.679 ± 0.028
2,UUCACUGUCAGCUUCUCUGAGAGAUUAACA,0.723 ± 0.032
3,UAGUCUCAGACCUUCUCUGAGAGAUUUUGA,0.00193 ± 0.0052
4,UAGUGAGUCACCUUCUGACAGAGAUUUUGA,0.00131 ± 0.0086
5,UAGUGACACACCUAGACUGAGAGAUUAACA,0.00089 ± 0.0085
6,UAGUGACUCACCUUCUGACAGAGAUUAACA,0.000332 ± 0.023
7,UAGUGACAGACCUUCUCUGAGAGUUUUUGA,0.000939 ± 0.013
8,UAGUGACAGUGGAACUCUGAGUGAUUUACA,0.000134 ± 0.043
9,UUCACUGUCACCUUCUCUGAGACUAUAUGA,0.00159 ± 0.0043
10,UAGUGACUCACCUUGACUGAGAGAUUAAGA,0.000806 ± 0.011
11,UAGUGUGUCACCUUCUCUCAGAGAUAUUGA,0.00393 ± 0.0047
12,UAGUGACAGUCCUUCUCUGUGACAUUAACA,0.00173 ± 0.0038
13,UACACUCUCACCUUCACUGAGAGAUUAACA,0.256 ± 0.02
14,UAGUGACAGACCUUCACAGAGAGAUUAACA,0.00158 ± 0.0076
15,UAGACUGUCACCUCUCUGAGAGAUUAACA,0.321 ± 0.036
16,UAGUCUGUCACCUCUCUCUGAGAGAUUAACA,0.481 ± 0.032
17,UAGUGACAGUGCUUGUCUGAGUGAUUAACA,0.000644 ± 0.01
18,UAGUGACAGACCUUCUCUGAGACAUUAUGA,0.000563 ± 0.013
19,UAGUCUGUCACCUUGUCUGACAGAUUAACA,0.00146 ± 0.0078
20,UUCACUGUCACCUUCUCUGAGAGUUUAUCA,0.27 ± 0.061
21,UAGUGACAGUGCUUCUCUGUGAGAAUAACA,0.000422 ± 0.011
22,UAGUGACAGUGCUUCUCUGUGUGAUUAACA,0.000916 ± 0.006
23,UAGUGACACACCUACUCUGAGAGAUAUUGA,0.000424 ± 0.012

# Individual results from the results shown.
# UUCACUGUCACCUUCUCUGAGACUAUAUGA – pre-steady-state target cleavage rate: 0.00159 ± 0.0043
# UUCACUGUCACCUUUUCUGAGAGAUUAACA – pre-steady-state target cleavage rate: 0.679 ± 0.028
# UAGUGACAGACCUUCUCUGAGACAUUAUGA – pre-steady-state target cleavage rate: 0.000563 ± 0.013
# UAGUCUCAGACCUUCUCUGAGAGAUUUUGA – pre-steady-state target cleavage rate: 0.00193 ± 0.0052

# Following part.

row,Sequence,pre-steady-state target cleavage rate
1,UAGUGACUCACCAUCUCUGAGAGUUUAACA,0.173 ± 0.035
2,UAGACUGUCACCUUGAGUGAGAGAUUAAGA,0.000574 ± 0.011
3,UAGUGACAGUGCUUCUGUGAGAGAUUAAGA,0.000792 ± 0.0082
4,UACACUGUCACCUUCUCUGACUGAUUAUGA,0.00134 ± 0.012
5,UUCACUGUCACCUUCUCUGAGUCAUAUUGA,0.00246 ± 0.0033
6,UAGACUGUCACCUAGUCUGAGAGAUAUUGA,0.000769 ± 0.0068
7,UAGUGACAGUGCAUUCUCUGAGAGAUUAACA,0.0141 ± 0.0028
8,UAGUGACAGUCCAAGUCUGAGAGAUUAACA,0.000295 ± 0.017
9,UAGUGACAGUGCUCUCUGAGAGAUUAACA,0.000237 ± 0.0092
10,UAGUGACAGUGGAAGAGAGAGAGAUUACCA,0.000297 ± 0.018
11,UAGUGUGUCACCUACUCUCAGAGAUUAACA,0.0454 ± 0.009
12,UACACUGUCAGGUUCUCUGAGAGAUUUUGA,0.00198 ± 0.0045
13,UAGUGACAGUGGAAGAGUGAGAGUUUAUCA,0.000371 ± 0.016
14,UAGUCUGUCACCUUCUCUGAGUCUUUAUGA,0.00112 ± 0.006
15,UAGUGACACACGAUCUCUGAGAGAUUAUGA,0.000277 ± 0.025
16,UAGUGACAGACCUUCUCUGAGAGUUAACA,0.00107 ± 0.01
17,UACACUGUCACCUUCUCUGUCAGAUUAAGA,0.00468 ± 0.006
18,UAGACAGUGACCUUCUCUGAGAGAUUAACA,0.554 ± 0.033
19,UAGACUGUCACCUUCUCACUGAGAUUUUGA,0.000875 ± 0.0084
20,UAGUGACAGACCUUCUCUGAGAUGAUUAACA,0.000805 ± 0.0076
21,UAGUCUGUCACCUUCUCUGAGUCAUUAAGA,0.00135 ± 0.0053
22,UAGUGACUCACCUUCUCUGGAGAGAUUAACA,0.000546 ± 0.013
23,UAGUGACACACCUUCUCUGAGAGUAUAUGA,0.0031 ± 0.004

row,Sequence,pre-steady-state target cleavage rate
1,UAGUGACACACGAUCUCUGAGAGAUUAAGA,0.00171 ± 0.0036
2,UAGACUGUCUGCUUCUCUGAGAGAUUUUGA,0.00067 ± 0.01
3,UAGUGACAGACCUUCGUCUGAGAGAUUAACA,0.00238 ± 0.0046
4,UAGUGACACACCUUCUCUGACUCAUUAACA,0.00115 ± 0.0052
5,UACACUGUCACCUUCUCUGUCUGAUUAUGA,0.00287 ± 0.0084
6,UACACUGUCACCUUCUCUCAGAGAUAUUGA,0.00311 ± 0.0061
7,UAGUGACAGUCCUUGACUGAGAGAUUAUGA,0.000477 ± 0.012
8,UAGUGUGUCACCUUGACUGAGAGAUUUUGA,0.00069 ± 0.012
9,UAGUGUGUCACCUUCUCUGAGACUAUAUGA,0.00115 ± 0.0091
10,UAGUGACAGUGGAAGAGAGACUCAUUAACA,0.000426 ± 0.012
11,UAGUGACAGUGGUUCACUGAGAGAUUUACA,0.000444 ± 0.018
12,UUCACUGUCACCUUCUCUGACUCAUUAUGA,0.00155 ± 0.0042
13,UAGACUGUCUGCUUCUCUGAGAGAUAUUGA,0.000375 ± 0.015
14,UAGUGACAGUGCUUCUCUGAGAGAAAUACA,0.000106 ± 0.029
15,UAGUGACAGUGCUUCUCUGAGAGAUCUAACA,0.00149 ± 0.0037
16,UUCACAGUCACCAUCUCUGAGAGAUUAACA,0.747 ± 0.039
17,UAGUCUGUCACCUACUCUGAGAGAUAUUGA,0.00258 ± 0.0039
18,UAGUGACAGUGGAAGACUGACUCAUUAACA,0.000101 ± 0.027
19,UAGUGACUCACCUUCAGUGAGAGAUUAUGA,0.00151 ± 0.0056
20,UAGUCUGUCACCAUCUCUGAGAGAUUAACA,0.667 ± 0.038
21,UAGUGACAGUGGAACUCUGAGACAUUAACA,0.000984 ± 0.018
22,UAGUGACUCACCUUGAGUGAGAGAUUUUGA,0.00056 ± 0.016
23,UAGUGUGUGUGCUUCUCUGAGAGAUUUUGA,0.0007 ± 0.012
